This assay can be described thus: qHTS Assay for Lipid Storage Modulators in Drosophila S3 Cells.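 For cell number change: cells counted by Cell Tracker Red CMTPX staining in the red channel.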 The note with it: BODIPY lipid droplet fluorescence, 18-24 h; for cell number change: measured here: cell count max response, cells fed with added oleic acid. The procedure, abridged:
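Drosophila S3 cells loaded with oleic acid (400 uM, as added) and compounds at several concentrations; lipid droplets imaged by 488-nm laser-scanning cytometry, 500–530 nm intensity and object ratio to cell channel. Percent activity normalized to 20 uM Triacsin C.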
(Quantitative high-throughput screening tests each substance at several concentrations.)

The mark [1] stands for this setting: measured here: cell number channel AC50, cells fed with added oleic acid.
[2] abbreviates: measured here: lipid fluorescence (Fed channel) AC50, cells fed with added oleic acid.

The record followed here is PubChem BioAssay AID2685 (National Center for Advancing Translational Sciences (NCATS), 2010).

The list shows a part of the results. Shown are side measurements of this screen, not its main read-out; they come without a call. Most of these compounds were active or inconclusive in the main read-out, so they are no random draw. The note in brackets gives the kind of curve behind each potency; many fits are weak.

Take `O=C1CC(c2ccc(S(=O)(=O)NCc3ccccc3)cc2)CN1` (centres undefined): the cell number change came out at 8.09%.

By AC50 is commonly meant the concentration at which the activity in the assay is half-maximal. A higher AC50 goes with weaker potency. Turning to `Cc1c(C(=O)Nc2ccc(-c3nnc4n3CCCCC4)cc2)oc2c1ccc1ccccc12`, the cell number change is -39%. Moreover, the AC50 under setting [1] is 16.4 µM [falling, single point]. Further, the half-maximal activity concentration (AC50) under setting [2] was 18.4 µM [falling, single point].

Regarding `C=CCNC(=O)c1oc2ccc(S(=O)(=O)N3CCCCC3)cc2c1C`, the concentration at half-maximal activity (AC50) under setting [2] was 29.1 µM [falling, single point].

Regarding `COC(=O)C1CCN(c2ccc(Cl)nn2)CC1`, the cell number change was -66.8%. In addition, under setting [1], the AC50 was 0.184 µM [falling, full curve].

With `Cc1ccc(OCC(=O)Nc2ccc(C)c(S(=O)(=O)N3CCCCCC3)c2)c([N+](=O)[O-])n1`, the cell number change is 20.2%. For the same compound, the AC50 under setting [2] is 7.31 µM [rising, full curve, poor fit].

For `CCOc1ncccc1C(=O)OCc1ccccc1`, the half-maximal activity concentration (AC50) under setting [2] is 6.51 µM [falling, single point].

On to `O=C1CC(c2ccccc2)n2nc(N3C(=O)CCC3=O)nc2N1` (centres undefined), for which the cell number change is -0.947%. Besides, the AC50 under setting [2] is 0.58 µM [falling, full curve].

Take `COc1cccc(C(=O)Nc2ccc3c(c2)C(=O)N(CC2CCCO2)C3=O)c1` (centres undefined): the cell number change is -28.3%.

In the case of `CCOc1ccccc1C(=O)NCC(=O)O`, the cell number change came to 11.1%. Also, under setting [2], the AC50 was 2.31 µM [falling, full curve, poor fit].

On to `CCOC(=O)c1c(NC(=O)COC(=O)CCNS(=O)(=O)c2ccccc2)sc(C(=O)N(C)C)c1C`, for which the cell number change is 50%. Besides, under setting [1], the half-maximal activity concentration (AC50) is 29.1 µM [rising, single point].

Take `O=C(Nc1nnc(-c2ccccc2)s1)c1ccccc1F`: the cell number change was 20.5%.

Take `Clc1ccc(-c2ccc(CNCc3ccccn3)o2)cc1`: the cell number change was 0.0499%. The concentration at half-maximal activity (AC50) under setting [2] is 29.1 µM [rising, single point].

In the case of `COC(=O)c1ccc(C2C(C(C)=O)=C(O)C(=O)N2CCO)cc1` (centres undefined), the cell number change is -22.1%. Further, under setting [2], the concentration at half-maximal activity (AC50) was 29.1 µM [falling, single point].

As to `COc1ccc(OC)c(/C=C/C(=O)c2ccc(Cl)cc2)c1`, the cell number change was -8.93%.

For `CC(=O)Oc1ccc(CCC(C)OC(C)=O)cc1` (centres undefined), the cell number change is -35.2%. Moreover, the concentration at half-maximal activity (AC50) under setting [1] is 1.03 µM [falling, full curve]. Under setting [2], the AC50 was 1.16 µM [falling, full curve].

For `COc1ccc(N2CC(C(=O)N[C@@H](CC(C)C)C(=O)NC3CCCC3)CC2=O)cc1` (some centres undefined), the cell number change is -2.83%. The AC50 under setting [2] was 29.1 µM [rising, partial curve].

Take `COC(=O)c1ccc(S(=O)(=O)N2CCCCCC2)cc1`: the cell number change is -6.13%. For the same compound, the concentration at half-maximal activity (AC50) under setting [1] was 0.00517 µM [falling, full curve, poor fit]. In addition, the AC50 under setting [2] was 0.0058 µM [falling, full curve, poor fit].

Turning to `CCC(=O)Nc1cccc(C(=O)/C=C/c2ccc(F)cc2)c1`, the cell number change was -50.4%. The half-maximal activity concentration (AC50) under setting [1] is 22.4 µM [falling, single point]. Further, the AC50 under setting [2] was 12.6 µM [falling, partial curve].
